We go through 4 compounds from PubChem BioAssay AID328 (DTP/NCI, 2004).

This test deals with BDF1 mice, P388 leukemia ip, median survival T/C. Briefly: NCI In Vivo Anticancer Drug Screen. Data for tumor model P388 Leukemia (intraperitoneal) in B6D2F1 (BDF1) mice. The settings on record: T/C endpoint: median survival time, higher T/C = longer survival. The procedure:
The antitumor activity of compounds was measured in mice bearing transplantable tumors. Survival or tumor size were measured and the results are expressed as the measurement made in the treated group (T) divided by the measurement made in the vehicle treated control group (C). The tumor model used in this assay is P388 Leukemia (intraperitoneal) in B6D2F1 (BDF1) mice

The mark [1] stands for this setting: dose: 6.25 mg/kg/injection, schedule: Q01DX009 (ip), vehicle: Klucel (hydroxypropylcellulose) (HPC).

The list shows only some results of the screen, not a fair sample: its compounds were picked by chemical class. Not every dose and run of a compound is shown. T/C: endpoint of the treated group in % of that of the vehicle group. For survival time, this PubChem deposit counts one and a half times the control or more as active, and values a quarter to a half above the control carry no call in these data; other NCI protocols may use other cut-offs. Some entries show no survivor count and are marked so; the dose need not have been tolerated. Schedule codes are those of the source, read here as Q, the interval in days (D) or hours (H), X, the number of doses. Some entries hold several experiments; the values are given in rising order.

As to `Cc1cccc(CN(CCCl)CCCl)c1`, the T/C reads like this: (dose: 0.63 mg/kg/injection, schedule: Q01DX009 (ip), vehicle: Klucel (hydroxypropylcellulose) (HPC)) 148 % of control [survivor count not shown]; (dose: 0.68 mg/kg/injection, schedule: Q01DX009 (ip), vehicle: Klucel (hydroxypropylcellulose) (HPC)) 95 % of control [survivor count not shown]; (dose: 1.0 mg/kg/injection, schedule: Q01DX009 (ip), vehicle: Klucel (hydroxypropylcellulose) (HPC)) 125 % of control [survivor count not shown]; (dose: 1.25 mg/kg/injection, schedule: Q01DX009 (ip), vehicle: Klucel (hydroxypropylcellulose) (HPC)) 149 % of control [survivor count not shown]; (dose: 1.56 mg/kg/injection, schedule: Q01DX009 (ip), vehicle: Klucel (hydroxypropylcellulose) (HPC)) 150 % of control [survivor count not shown]; (dose: 2.5 mg/kg/injection, schedule: Q01DX009 (ip), vehicle: Klucel (hydroxypropylcellulose) (HPC)) 158 [survivor count not shown] and 170 % of control [survivor count not shown]. Also, the T/C by setting is: (dose: 2.5 mg/kg/injection, schedule: Q01DX009 (ip), vehicle: saline) 105 % of control [survivor count not shown]; (dose: 3.12 mg/kg/injection, schedule: Q01DX009 (ip), vehicle: Klucel (hydroxypropylcellulose) (HPC)) 150 % of control [survivor count not shown]; (dose: 4.17 mg/kg/injection, schedule: Q01DX009 (ip), vehicle: Klucel (hydroxypropylcellulose) (HPC)) 170 % of control [survivor count not shown]; (dose: 5.0 mg/kg/injection, schedule: Q01DX009 (ip), vehicle: Klucel (hydroxypropylcellulose) (HPC)) 170 [survivor count not shown] and 197 % of control [survivor count not shown]; (dose: 5.0 mg/kg/injection, schedule: Q01DX009 (ip), vehicle: saline) 104 % of control [survivor count not shown]; under setting [1], 155 [survivor count not shown] and 175 % of control [survivor count not shown]. Also, the T/C is, setting by setting: (dose: 9.2 mg/kg/injection, schedule: Q01DX009 (ip), vehicle: Klucel (hydroxypropylcellulose) (HPC)) 108 % of control [survivor count not shown]; (dose: 9.37 mg/kg/injection, schedule: Q01DX009 (ip), vehicle: Klucel (hydroxypropylcellulose) (HPC)) 190 % of control [survivor count not shown]; (dose: 10.0 mg/kg/injection, schedule: Q01DX009 (ip), vehicle: saline) 103 % of control [survivor count not shown]; (dose: 20.0 mg/kg/injection, schedule: Q01DX009 (ip), vehicle: saline) 108 % of control [survivor count not shown].
Take `NC1CCCCC1.NP(=O)(O)N(CCCl)CCCl`: the T/C reads like this: (dose: 0.75 mg/kg/injection, schedule: Q04DX003 (ip), vehicle: saline) 110 % of control [survivor count not shown]; (dose: 1.5 mg/kg/injection, schedule: Q04DX003 (ip), vehicle: saline) 95 % of control [survivor count not shown]; (dose: 3.0 mg/kg/injection, schedule: Q04DX003 (ip), vehicle: saline) 105 % of control [survivor count not shown]; (dose: 6.25 mg/kg/injection, schedule: Q01DX009 (ip), vehicle: water) 184 % of control [survivor count not shown]; (dose: 25.0 mg/kg/injection, schedule: Q01DX009 (ip), vehicle: water) 252 % of control [survivor count not shown]; (dose: 25.0 mg/kg/injection, schedule: Q04DX003 (ip), vehicle: saline with Tween-80) 230 % of control [survivor count not shown]. For the same compound, the T/C is, setting by setting: (dose: 25.0 mg/kg/injection, schedule: Q08DX002 (ip), vehicle: water) 187 % of control [survivor count not shown]; (dose: 50.0 mg/kg/injection, schedule: Q01DX001 (ip), vehicle: water) 170 % of control [survivor count not shown]; (dose: 50.0 mg/kg/injection, schedule: Q01DX009 (ip), vehicle: water) 137 % of control [survivor count not shown]; (dose: 50.0 mg/kg/injection, schedule: Q04DX003 (ip), vehicle: saline with Tween-80) 255 % of control [survivor count not shown]; (dose: 50.0 mg/kg/injection, schedule: Q04DX003 (ip), vehicle: water) 224 % of control [survivor count not shown]; (dose: 100.0 mg/kg/injection, schedule: Q04DX003 (ip), vehicle: saline with Tween-80) 250 [survivor count not shown] and 285 % of control [survivor count not shown]. In addition, the T/C reads like this: (dose: 100.0 mg/kg/injection, schedule: Q04DX003 (ip), vehicle: water) 258 % of control [survivor count not shown]; (dose: 100.0 mg/kg/injection, schedule: Q08DX002 (ip), vehicle: water) 223 % of control [survivor count not shown]; (dose: 200.0 mg/kg/injection, schedule: Q01DX001 (ip), vehicle: water) 264 % of control [survivor count not shown]; (dose: 200.0 mg/kg/injection, schedule: Q04DX003 (ip), vehicle: saline with Tween-80) 108 % of control [survivor count not shown]; (dose: 200.0 mg/kg/injection, schedule: Q04DX003 (ip), vehicle: water) 86 % of control [survivor count not shown]; (dose: 200.0 mg/kg/injection, schedule: Q08DX002 (ip), vehicle: water) 126 % of control [survivor count not shown].
`O=P(N(CCCl)CCCl)(N1CC1)N1CC1`: the T/C was 127 [survivor count not shown] and 145 % of control [survivor count not shown] (dose: 264.0 mg/kg/injection, schedule: Q04DX003 (ip), vehicle: saline with Tween-80); 125 [survivor count not shown] and 145 % of control [survivor count not shown] (dose: 400.0 mg/kg/injection, schedule: Q04DX003 (ip), vehicle: saline with Tween-80); 133 [survivor count not shown] and 209 % of control [survivor count not shown] (dose: 600.0 mg/kg/injection, schedule: Q04DX003 (ip), vehicle: saline with Tween-80).
For the compound `COc1c(C)cc(N(CCCl)CCCl)c2ccccc12`, the T/C by setting is: (dose: 3.6 mg/kg/injection, schedule: Q04DX003 (ip), vehicle: Klucel (hydroxypropylcellulose) (HPC)) 100 % of control [survivor count not shown]; (dose: 5.4 mg/kg/injection, schedule: Q04DX003 (ip), vehicle: Klucel (hydroxypropylcellulose) (HPC)) 154 % of control [survivor count not shown]; under setting [1], 190 % of control [survivor count not shown]; (dose: 12.5 mg/kg/injection, schedule: Q01DX009 (ip), vehicle: Klucel (hydroxypropylcellulose) (HPC)) 195 % of control [survivor count not shown]; (dose: 25.0 mg/kg/injection, schedule: Q01DX009 (ip), vehicle: Klucel (hydroxypropylcellulose) (HPC)) 142 % of control [survivor count not shown]; (dose: 50.0 mg/kg/injection, schedule: Q01DX009 (ip), vehicle: Klucel (hydroxypropylcellulose) (HPC)) 110 % of control [survivor count not shown]. The T/C is 218 % of control [survivor count not shown] (dose: 65.0 mg/kg/injection, schedule: Q04DX003 (ip), vehicle: Klucel (hydroxypropylcellulose) (HPC)); 215 % of control [survivor count not shown] (dose: 100.0 mg/kg/injection, schedule: Q04DX003 (ip), vehicle: Klucel (hydroxypropylcellulose) (HPC)); 95 [survivor count not shown] and 125 % of control [survivor count not shown] (dose: 132.0 mg/kg/injection, schedule: Q04DX003 (ip), vehicle: Klucel (hydroxypropylcellulose) (HPC)); 110 [survivor count not shown] and 300 % of control [survivor count not shown] (dose: 200.0 mg/kg/injection, schedule: Q04DX003 (ip), vehicle: Klucel (hydroxypropylcellulose) (HPC)).
